Assay [1] has as its target Flag-ERβ (WT) (human) (UniProt Q92731). In words: co-IP of ectopic c-Abl with Flag-ERβ in HEK293T cells.
Assay [2] has the same target. In words: IP of Flag-ERβ from HEK293T cells, anti-c-Abl immunoblot. In general terms: Immunoblotting shows a protein as a band on a membrane.
Assay [3] deals with estrogen receptor beta (ERβ) (human) (UniProt Q92731). Nature of the assay: reciprocal co-IP of endogenous proteins in MDA-MB-231 cells.
The target is the same in assay [4]. In words: IP of c-Abl with ERβ immunoblot, and reciprocal co-IP, in MDA-MB-231 cells.
Assay [5] concerns the target ERβ AF1 (amino acid 1-148) (human) (UniProt Q92731). Nature of the assay: yeast two-hybrid screen, ERβ AF1 (1-148) as bait, human mammary cDNA prey library.
The target in assay [6] is estrogen receptor beta (ERβ) (human) (UniProt Q92731). Nature of the assay: co-IP of endogenous proteins in MCF7 cells; detectable without ligand, enhanced by E2.
For assay [7] the target is unchanged. In words: GST-EYA2 pull-down of in vitro translated ERβ; detectable without ligand, enhanced by DPN.

Chains of the proteins cited; added tags and fusions are not shown. Lines headed by an entry give the natural chain unless they say otherwise; changes in a name come on top.
UniProt Q92731: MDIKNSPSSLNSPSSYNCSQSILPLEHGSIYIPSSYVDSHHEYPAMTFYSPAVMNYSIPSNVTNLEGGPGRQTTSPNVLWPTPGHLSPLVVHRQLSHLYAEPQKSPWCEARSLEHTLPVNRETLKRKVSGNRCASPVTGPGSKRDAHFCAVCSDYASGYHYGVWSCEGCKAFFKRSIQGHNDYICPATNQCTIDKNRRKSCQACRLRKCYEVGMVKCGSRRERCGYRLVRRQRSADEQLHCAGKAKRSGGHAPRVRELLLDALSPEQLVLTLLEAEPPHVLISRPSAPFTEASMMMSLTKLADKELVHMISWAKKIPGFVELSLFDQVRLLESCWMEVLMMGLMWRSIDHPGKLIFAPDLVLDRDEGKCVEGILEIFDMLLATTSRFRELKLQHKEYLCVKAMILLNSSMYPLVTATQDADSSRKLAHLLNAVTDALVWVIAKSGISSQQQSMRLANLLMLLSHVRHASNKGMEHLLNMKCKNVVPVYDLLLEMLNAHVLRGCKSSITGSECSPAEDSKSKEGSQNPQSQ
UniProt P00519: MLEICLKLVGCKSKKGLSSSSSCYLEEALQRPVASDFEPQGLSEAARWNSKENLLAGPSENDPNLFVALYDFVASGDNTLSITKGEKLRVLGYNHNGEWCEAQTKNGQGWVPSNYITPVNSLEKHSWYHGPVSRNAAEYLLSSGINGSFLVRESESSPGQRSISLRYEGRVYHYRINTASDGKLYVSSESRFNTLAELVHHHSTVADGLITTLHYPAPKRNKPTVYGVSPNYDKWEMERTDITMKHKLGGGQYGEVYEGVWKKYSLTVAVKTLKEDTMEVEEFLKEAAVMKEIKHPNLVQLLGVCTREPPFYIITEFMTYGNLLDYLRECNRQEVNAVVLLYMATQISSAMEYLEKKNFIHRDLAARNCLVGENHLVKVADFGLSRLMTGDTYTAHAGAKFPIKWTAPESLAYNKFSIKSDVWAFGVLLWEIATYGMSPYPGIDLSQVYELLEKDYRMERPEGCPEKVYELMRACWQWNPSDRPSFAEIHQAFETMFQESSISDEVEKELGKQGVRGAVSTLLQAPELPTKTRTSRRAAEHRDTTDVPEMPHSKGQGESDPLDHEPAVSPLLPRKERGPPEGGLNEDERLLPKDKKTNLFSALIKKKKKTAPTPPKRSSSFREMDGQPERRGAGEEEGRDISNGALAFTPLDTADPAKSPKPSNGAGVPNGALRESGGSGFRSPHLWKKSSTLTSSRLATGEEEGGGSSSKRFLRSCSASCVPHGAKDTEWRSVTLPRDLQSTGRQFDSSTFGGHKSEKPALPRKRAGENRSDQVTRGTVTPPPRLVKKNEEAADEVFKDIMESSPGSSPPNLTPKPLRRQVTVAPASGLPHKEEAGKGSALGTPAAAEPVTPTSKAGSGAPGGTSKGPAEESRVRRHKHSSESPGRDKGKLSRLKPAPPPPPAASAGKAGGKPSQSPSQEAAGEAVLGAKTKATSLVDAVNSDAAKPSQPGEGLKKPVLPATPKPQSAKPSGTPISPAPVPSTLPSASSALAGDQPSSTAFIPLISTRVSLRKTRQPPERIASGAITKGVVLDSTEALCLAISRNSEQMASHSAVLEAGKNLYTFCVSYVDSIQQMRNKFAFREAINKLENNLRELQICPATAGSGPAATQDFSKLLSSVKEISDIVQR

No constants are given. Whether binding was seen depends on the method and setting. For some of these results: In cells and extracts the contact can be indirect. Some results given as binding are weak or reduced against the parent protein; the word gives no strength. For some of these results: Tags and fused reporters may be left off the sequences shown.

As to “WT c-Abl (ectopic, co-expressed with Flag-ERβ in HEK293T cells) (from UniProt P00519 1-1130) (enzyme)”, the binding entry in the assay with Flag-ERβ (WT) (human) [1] and in the assay with Flag-ERβ (WT) (human) [2] was “binds” in each case.

As for “c-Abl (from UniProt P00519 1-1130) (enzyme)”, the binding result in assay [3] and in assay [4] was “binds” throughout.

B1: EYA2 (enzyme, human, UniProt O00167 1-538, looked up)
chain: MVELVISPSLTVNSDCLDKLKFNRADAAVWTLSDRQGITKSAPLRVSQLFSRSCPRVLPRQPSTAMAAYGQTQYSAGIQQATPYTAYPPPAQAYGIPSYSIKTEDSLNHSPGQSGFLSYGSSFSTSPTGQSPYTYQMHGTTGFYQGGNGLGNAAGFGSVHQDYPSYPGFPQSQYPQYYGSSYNPPYVPASSICPSPLSTSTYVLQEASHNVPNQSSESLAGEYNTHNGPSTPAKEGDTDRPHRASDGKLRGRSKRSSDPSPAGDNEIERVFVWDLDETIIIFHSLLTGTFASRYGKDTTTSVRIGLMMEEMIFNLADTHLFFNDLEDCDQIHVDDVSSDDNGQDLSTYNFSADGFHSSAPGANLCLGSGVHGGVDWMRKLAFRYRRVKEMYNTYKNNVGGLIGTPKRETWLQLRAELEALTDLWLTHSLKALNLINSRPNCVNVLVTTTQLIPALAKVLLYGLGSVFPIENIYSATKTGKESCFERIMQRFGRKAVYVVIGDGVEEEQGAKKHNMPFWRISCHADLEALRHALELEYL
For the molecule B1, the binding entry in assay [5] and in assay [6] was “binds” throughout.

B2: GST-EYA2 (enzyme, human, UniProt O00167 1-538, looked up, not shown: a dimerising Fc or GST)
chain: B1 chain
With B2, in assay [7], the binding entry is listed as “binds”.
